Test results published in paper PMC7910296, “Phosphorescent Ir(III) complexes conjugated with oligoarginine peptides serve as optical probes for in vivo microvascular imaging” (Scientific Reports, 2021).

System: albumin
Assay: Phosphorescence decay in fetal bovine serum (interaction with albumin)
Format: binding
Conditions: FBS containing 1% DMSO, 37 °C, double-exponential decay
[1] = excited at 488 nm, monitored at 660 nm

## (btq)2Ir(phen-pipe) [BTQphen]
  share of component τ1 (in parentheses): 41%
  share of component τ2 (in parentheses): 59%
[1]
  τ1, phosphorescence lifetime, first component: 1.65 µs
  τ2, phosphorescence lifetime, second component: 4.05 µs
